{"source": "PubChem BioAssay AID504793, Drosophila RNAi Screening Center | 2011", "screen": "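Genes required for cells to halt at G2/M after double-strand DNA breaks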 (primary screen)", "cell system": "Drosophila S2R+ cells", "knock-down reagent": "long dsRNA against Drosophila genes, about 0.25 µg dsRNA per well", "duration": "4 days of dsRNA, then 4 hours of drug before read-out", "treatment": "doxorubicin 0.5 µM for 4 hours to cause double-strand breaks, in cells also given a low, harmless dose of dsRNA against nbs to sensitise the assay", "read-out": "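Mitotic index as the number of phospho-histone H3-positive cells in each well following doxorubicin, given as raw counts without normalisation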", "reading the numbers": "mitotic cells: higher = more cells in mitosis, weaker G2 arrest", "call rule": "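Genes are called active only when high mitotic counts were reproduced with independent dsRNAs and mitosis was checked for delay without damage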", "meaning of the calls": "active = confirmed in follow-up tests; inactive = not confirmed", "note": "In all, the deposit lists about 23,000 reagents; below is an unselected part of those that have a named target and a result. Over the whole deposit, 62 (0.27%) got an active call. 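Calls come from follow-up tests whose scores are not deposited, so confirmed genes may have low counts here; counts are not normalised per plate.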 Raw values vary from plate to plate and are shown uncorrected. Names joined by + are all predicted targets of the reagent."}
The opening 4 records, ahead of the listing:
{"predicted target": "CG8026", "dsRNA": "DRSC07055", "mitotic cells, replicate 1": 13, "outcome": "inactive"}
{"predicted target": "CG8026", "dsRNA": "DRSC07056", "mitotic cells, replicate 1": 5, "outcome": "inactive"}
{"predicted target": "CG2200", "dsRNA": "DRSC19840", "mitotic cells, replicate 1": 7, "outcome": "inactive"}
{"predicted target": "C3G", "dsRNA": "DRSC17929", "mitotic cells, replicate 1": 12, "outcome": "inactive"}

Main list, repeating the preview:
{"predicted target": "CG8026", "dsRNA": "DRSC07055", "mitotic cells, replicate 1": 13, "outcome": "inactive"}
{"predicted target": "CG8026", "dsRNA": "DRSC07056", "mitotic cells, replicate 1": 5, "outcome": "inactive"}
{"predicted target": "CG2200", "dsRNA": "DRSC19840", "mitotic cells, replicate 1": 7, "outcome": "inactive"}
{"predicted target": "C3G", "dsRNA": "DRSC17929", "mitotic cells, replicate 1": 12, "outcome": "inactive"}
{"predicted target": "C3G", "dsRNA": "DRSC23077", "mitotic cells, replicate 1": 15, "outcome": "inactive"}
{"predicted target": "C3G", "dsRNA": "DRSC29081", "mitotic cells, replicate 1": 7, "outcome": "inactive"}
{"predicted target": "CG6290", "dsRNA": "DRSC19979", "mitotic cells, replicate 1": 4, "outcome": "inactive"}
{"predicted target": "CG6290", "dsRNA": "DRSC25483", "mitotic cells, replicate 1": 6, "outcome": "inactive"}
{"predicted target": "CG10477", "dsRNA": "DRSC09732", "mitotic cells, replicate 1": 3, "outcome": "inactive"}
{"predicted target": "CG10477", "dsRNA": "DRSC23989", "mitotic cells, replicate 1": 5, "outcome": "inactive"}
{"predicted target": "grim", "dsRNA": "DRSC23169", "mitotic cells, replicate 1": 7, "outcome": "inactive"}
{"predicted target": "CG42383", "dsRNA": "DRSC21733", "mitotic cells, replicate 1": 9, "outcome": "inactive"}
{"predicted target": "CG31867", "dsRNA": "DRSC03338", "mitotic cells, replicate 1": 4, "outcome": "inactive"}
{"predicted target": "nclb", "dsRNA": "DRSC07009", "mitotic cells, replicate 1": 4, "outcome": "inactive"}
{"predicted target": "CG30466", "dsRNA": "DRSC05556", "mitotic cells, replicate 1": 5, "outcome": "inactive"}
{"predicted target": "His1:CG33816 + His1:CG33828 + His1:CG33819 + 21 more", "dsRNA": "DRSC21266", "mitotic cells, replicate 1": 9, "outcome": "inactive"}
{"predicted target": "CG14397", "dsRNA": "DRSC02381", "mitotic cells, replicate 1": 7, "outcome": "inactive"}
{"predicted target": "mRpL51", "dsRNA": "DRSC02200", "mitotic cells, replicate 1": 4, "outcome": "inactive"}
{"predicted target": "mRpL51", "dsRNA": "DRSC29908", "mitotic cells, replicate 1": 7, "outcome": "inactive"}
{"predicted target": "VhaM9.7-c", "dsRNA": "DRSC08204", "mitotic cells, replicate 1": 8, "outcome": "inactive"}
{"predicted target": "VhaM9.7-c", "dsRNA": "DRSC30083", "mitotic cells, replicate 1": 3, "outcome": "inactive"}
{"predicted target": "CG3841", "dsRNA": "DRSC02730", "mitotic cells, replicate 1": 5, "mitotic cells, replicate 2": 2, "outcome": "inactive"}
{"predicted target": "Lcp65Ad", "dsRNA": "DRSC11211", "mitotic cells, replicate 1": 6, "outcome": "inactive"}
{"predicted target": "Lcp65Ad", "dsRNA": "DRSC24630", "mitotic cells, replicate 1": 8, "outcome": "inactive"}
{"predicted target": "Ir60d", "dsRNA": "DRSC04218", "mitotic cells, replicate 1": 5, "outcome": "inactive"}
{"predicted target": "CG5664", "dsRNA": "DRSC11782", "mitotic cells, replicate 1": 16, "outcome": "inactive"}
{"predicted target": "Ggt-1", "dsRNA": "DRSC19993", "mitotic cells, replicate 1": 4, "outcome": "inactive"}
{"predicted target": "Ggt-1", "dsRNA": "DRSC27144", "mitotic cells, replicate 1": 7, "outcome": "inactive"}
{"predicted target": "Dpit47", "dsRNA": "DRSC04985", "mitotic cells, replicate 1": 5, "outcome": "inactive"}
{"predicted target": "Dpit47", "dsRNA": "DRSC28888", "mitotic cells, replicate 1": 4, "outcome": "inactive"}
{"predicted target": "Pi3K59F", "dsRNA": "DRSC04640", "mitotic cells, replicate 1": 5, "outcome": "inactive"}
{"predicted target": "Pi3K59F", "dsRNA": "DRSC28890", "mitotic cells, replicate 1": 4, "outcome": "inactive"}
{"predicted target": "BOD1", "dsRNA": "DRSC15824", "mitotic cells, replicate 1": 12, "outcome": "inactive"}
{"predicted target": "BOD1", "dsRNA": "DRSC24273", "mitotic cells, replicate 1": 6, "outcome": "inactive"}
